Measured values published in PMC11402830.
No constants are given. Whether binding was seen depends on the method and setting. Some entries that bind do so weakly or less than the wild type.

Biological target: T1, human peptidyl arginine deiminase 6 (human), Q6TGC4
T1 chain: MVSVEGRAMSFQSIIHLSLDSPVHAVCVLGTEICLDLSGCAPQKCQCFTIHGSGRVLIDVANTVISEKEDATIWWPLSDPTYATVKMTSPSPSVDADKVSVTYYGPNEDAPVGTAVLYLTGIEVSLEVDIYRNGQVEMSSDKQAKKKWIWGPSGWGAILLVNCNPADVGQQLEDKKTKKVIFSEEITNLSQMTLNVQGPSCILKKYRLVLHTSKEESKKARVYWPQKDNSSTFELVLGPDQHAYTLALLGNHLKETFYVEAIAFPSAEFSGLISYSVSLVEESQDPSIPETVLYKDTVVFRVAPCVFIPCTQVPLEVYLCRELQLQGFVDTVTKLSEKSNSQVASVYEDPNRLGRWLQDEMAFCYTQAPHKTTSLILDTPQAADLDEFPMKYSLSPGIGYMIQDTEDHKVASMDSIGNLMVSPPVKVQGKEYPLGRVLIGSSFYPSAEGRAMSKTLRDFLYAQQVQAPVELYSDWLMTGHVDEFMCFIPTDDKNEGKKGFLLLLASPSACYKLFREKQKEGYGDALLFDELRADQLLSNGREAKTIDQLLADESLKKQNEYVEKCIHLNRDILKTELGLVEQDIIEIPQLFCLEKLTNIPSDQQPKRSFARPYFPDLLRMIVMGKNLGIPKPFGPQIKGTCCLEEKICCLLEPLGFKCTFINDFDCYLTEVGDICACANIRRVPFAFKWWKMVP
Test: crystal structure; hPADI6 at 5 mg/mL, sitting drop at 20 °C, 20.9 % PEG3350, 0.2 M KSCN, 0.1 M Bis-Tris propane pH 6.5; no Ca2+; 2.44 Å; two chains (A, B); both purified
Conditions: remark: other sources report otherwise

B1: human peptidyl arginine deiminase 6, Q6TGC4 1-694 (natural protein)
chain: T1 chain
  binding: binds
